Experimental data from the supplement of paper PMC8728848.
The list shows a part of the results.

Key:
Assay in all cases: glycan array binding signal (z-score within array); higher = stronger binding
Conditions in all cases: glycan notation: IUPAC condensed, linker removed
[1] = molecular target: Neu5Ac(a2-6)Gal(b1-4)GlcNAc(b1-6)GalNAc
Summary of the method: (§1)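 From the Consortium for Functional Glycomics database, 3228 arrays were curated, keeping only those whose protein sequence was available. Binding is given as a within-array Z-score averaged across arrays sharing a protein sequence and across linkers. Negative Z-scores can be read as non-binding.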

[2] = molecular target: Neu5Ac(a2-6)Gal(b1-4)GlcNAc(b1-6)[Gal(b1-3)GlcNAc(b1-3)]Gal(b1-4)Glc
Summary of the method: as §1

[3] = molecular target: Neu5Ac(a2-6)Gal(b1-4)GlcNAc(b1-6)[Gal(b1-3)]GalNAc
Summary of the method: as §1

[4] = molecular target: Neu5Ac(a2-6)Gal(b1-4)GlcNAc6S
Summary of the method: as §1

Neu5Ac(a2-6)GalNAc = molecular target: Neu5Ac(a2-6)GalNAc
Summary of the method: as §1

[5] = molecular target: Neu5Ac(a2-6)GalNAc(b1-4)GlcNAc
Summary of the method: as §1

[6] = molecular target: Neu5Ac(a2-6)GalNAc(b1-4)GlcNAc6S
Summary of the method: as §1

[7] = molecular target: Neu5Ac(a2-6)GlcNAc(b1-4)GlcNAc
Summary of the method: as §1

[8] = molecular target: Neu5Ac(a2-6)GlcNAc(b1-4)GlcNAc(b1-4)GlcNAc
Summary of the method: as §1

Neu5Ac(a2-8)Neu5Ac = molecular target: Neu5Ac(a2-8)Neu5Ac
Summary of the method: as §1

[9] = molecular target: Neu5Ac(a2-8)Neu5Ac(a2-3)Gal(b1-3)GalNAc(b1-4)[Neu5Ac(a2-3)]Gal(b1-4)Glc
Summary of the method: as §1

[10] = molecular target: Neu5Ac(a2-8)Neu5Ac(a2-3)Gal(b1-3)GalNAc(b1-4)[Neu5Ac(a2-8)Neu5Ac(a2-3)]Gal(b1-4)Glc
Summary of the method: as §1

[11] = molecular target: Neu5Ac(a2-8)Neu5Ac(a2-3)Gal(b1-4)Glc
Summary of the method: as §1

[12] = molecular target: Neu5Ac(a2-8)Neu5Ac(a2-3)Gal(b1-4)GlcNAc
Summary of the method: as §1

[13] = molecular target: Neu5Ac(a2-8)Neu5Ac(a2-3)[Gal(b1-3)GalNAc(b1-4)]Gal(b1-4)Glc
Summary of the method: as §1

[14] = molecular target: Neu5Ac(a2-8)Neu5Ac(a2-3)[GalNAc(b1-4)]Gal(b1-4)Glc
Summary of the method: as §1

[15] = molecular target: Neu5Ac(a2-8)Neu5Ac(a2-8)Neu5Ac
Summary of the method: as §1

[16] = molecular target: Neu5Ac(a2-8)Neu5Ac(a2-8)Neu5Ac(a2-3)Gal(b1-4)Glc
Summary of the method: as §1

[17] = molecular target: Neu5Ac(a2-8)Neu5Ac(a2-8)Neu5Ac(a2-3)[Gal(b1-3)GalNAc(b1-4)]Gal(b1-4)Glc
Summary of the method: as §1

[18] = molecular target: Neu5Ac(a2-8)Neu5Ac(a2-8)Neu5Ac(a2-3)[GalNAc(b1-4)]Gal(b1-4)Glc
Summary of the method: as §1

[19] = molecular target: Neu5Ac(a2-8)Neu5Ac(a2-8)Neu5Ac(a2-8)Neu5Ac(a2-3)[GalNAc(b1-4)]Gal(b1-4)Glc
Summary of the method: as §1

[20] = molecular target: Neu5Ac(a2-8)Neu5Gc(a2-3)Gal(b1-4)GlcNAc
Summary of the method: as §1

[21] = molecular target: Neu5Ac(b2-6)Gal(b1-4)GlcNAc
Summary of the method: as §1

Neu5Ac(b2-6)GalNAc = molecular target: Neu5Ac(b2-6)GalNAc
Summary of the method: as §1

[22] = molecular target: Neu5Ac9Ac(a2-3)Gal(b1-3)GlcNAc
Summary of the method: as §1

[23] = molecular target: Neu5Ac9Ac(a2-3)Gal(b1-4)GlcNAc
Summary of the method: as §1

[24] = molecular target: Neu5Ac9Ac(a2-6)Gal(b1-4)GlcNAc
Summary of the method: as §1

[25] = molecular target: Neu5Gc(a2-3)Gal(b1-3)GlcNAc
Summary of the method: as §1

[26] = molecular target: Neu5Gc(a2-3)Gal(b1-3)[Fuc(a1-4)]GlcNAc
Summary of the method: as §1

Neu5Gc(a2-3)Gal(b1-4)Glc = molecular target: Neu5Gc(a2-3)Gal(b1-4)Glc
Summary of the method: as §1

[27] = molecular target: Neu5Gc(a2-3)Gal(b1-4)GlcNAc
Summary of the method: as §1

[28] = molecular target: Neu5Gc(a2-3)Gal(b1-4)GlcNAc(b1-3)Gal(b1-4)GlcNAc(b1-2)Man(a1-3)[Neu5Gc(a2-3)Gal(b1-4)GlcNAc(b1-3)Gal(b1-4)GlcNAc(b1-2)Man(a1-6)]Man(b1-4)GlcNAc(b1-4)GlcNAc
Summary of the method: as §1

[29] = molecular target: Neu5Gc(a2-3)Gal(b1-4)[Fuc(a1-3)]GlcNAc
Summary of the method: as §1

[30] = molecular target: Neu5Gc(a2-6)Gal(b1-4)GlcNAc
Summary of the method: as §1

Neu5Gc(a2-6)GalNAc = molecular target: Neu5Gc(a2-6)GalNAc
Summary of the method: as §1

[31] = molecular target: Neu5Gc(a2-8)Neu5Ac(a2-3)Gal(b1-4)GlcNAc
Summary of the method: as §1

[32] = molecular target: Neu5Gc(a2-8)Neu5Gc(a2-3)Gal(b1-4)GlcNAc
Summary of the method: as §1

[33] = molecular target: Neu5Gc(a2-8)Neu5Gc(a2-3)Gal(b1-4)GlcNAc(b1-3)Gal(b1-4)GlcNAc
Summary of the method: as §1

B1: PX9961W-pdi-543-27-543 (Parabacteroides distasonis) (protein)
chain: EGNATTTSYFLNDQQAIDAIDGLYERFHQEGCYGRELFWEQGAACDIVWGRTRGYNSLATLAYTGDESPLRDVFSRMYSTMSRANWIIQELVKKEKGTTLTAVEKRSLGEAYFSRGWAHYLIAYRYGTDKQGVPFVRYEDFPDDYDNSIPPQQATVMDNYKLIIEDMDKAIAYLPIFESYDADNRGRAHQAAAVAFKAKTYAYWATWDATQWNNVIEMVNQLENNYNRDLAPTFAELFSSDLKDYWNAEYLWTIPSIGGALPGGTEFPGIILENKGWGKYNGWGQMKPSYDIYEEMAKDGKGNDRLVRSILEYNQEFPFFGETRKFWSTSDLEAGFMINKYMDAFKYSDPVGEGAVSANGDWPTVRVNFPIIRFAEMLLFRAEAYLMTGQADKATADINRIRLRSNLTPLTGTATMKDLYHERRCELAFEFTDHLFDLKRWNRSSNADIKTLADKELNAHPRIRRYEDRANPESAFTIIGYEDYTNKNAYQAHMMVFPYPSEEITKSNGQLKQNEGY
[1]
  glycan array binding signal (z-score): 0.508
[2]
  glycan array binding signal (z-score): -0.801
[3]
  glycan array binding signal (z-score): -0.176
[4]
  glycan array binding signal (z-score): -0.912
Neu5Ac(a2-6)GalNAc
  glycan array binding signal (z-score): -1.06
[5]
  glycan array binding signal (z-score): -0.098
[6]
  glycan array binding signal (z-score): 0.074
[7]
  glycan array binding signal (z-score): -0.176
[8]
  glycan array binding signal (z-score): -0.018
Neu5Ac(a2-8)Neu5Ac
  glycan array binding signal (z-score): 0.374
[9]
  glycan array binding signal (z-score): -0.508
[10]
  glycan array binding signal (z-score): 0.041
[11]
  glycan array binding signal (z-score): 0.034
[12]
  glycan array binding signal (z-score): -0.026
[13]
  glycan array binding signal (z-score): -0.302
[14]
  glycan array binding signal (z-score): 0.603
[15]
  glycan array binding signal (z-score): -0.413
[16]
  glycan array binding signal (z-score): -0.66
[17]
  glycan array binding signal (z-score): -0.424
[18]
  glycan array binding signal (z-score): -0.103
[19]
  glycan array binding signal (z-score): -1.1
[20]
  glycan array binding signal (z-score): 14.4
[21]
  glycan array binding signal (z-score): 0.001
Neu5Ac(b2-6)GalNAc
  glycan array binding signal (z-score): 1.53
[22]
  glycan array binding signal (z-score): -0.302
[23]
  glycan array binding signal (z-score): -0.691
[24]
  glycan array binding signal (z-score): -0.003
[25]
  glycan array binding signal (z-score): -0.935
[26]
  glycan array binding signal (z-score): -0.874
Neu5Gc(a2-3)Gal(b1-4)Glc
  glycan array binding signal (z-score): -0.416
[27]
  glycan array binding signal (z-score): -0.905
[28]
  glycan array binding signal (z-score): -0.102
[29]
  glycan array binding signal (z-score): -0.038
[30]
  glycan array binding signal (z-score): -0.667
Neu5Gc(a2-6)GalNAc
  glycan array binding signal (z-score): 1.23
[31]
  glycan array binding signal (z-score): 0.025
[32]
  glycan array binding signal (z-score): 0.188
[33]
  glycan array binding signal (z-score): -0.859
